Source: PubChem BioAssay AID720504 (National Center for Advancing Translational Sciences (NCATS), 2013)
Out of some 360,000 compounds screened, about 10,000 (2.8%) were called active. The shares of active, inactive and inconclusive entries below differ from those in the screen. The call rests on the fitted dose curve; in most records, active means well fitted inhibition curve with a large enough effect; inconclusive means small, poorly fitted or top-dose-only effect; inactive means flat fitted curve, though single readings scatter. Potencies of inconclusive entries are doubtful fits and often do not repeat.

Sequences of proteins named here, by UniProt entry; tags and fusion partners are left off.
UniProt P53350, whole entry, looked up: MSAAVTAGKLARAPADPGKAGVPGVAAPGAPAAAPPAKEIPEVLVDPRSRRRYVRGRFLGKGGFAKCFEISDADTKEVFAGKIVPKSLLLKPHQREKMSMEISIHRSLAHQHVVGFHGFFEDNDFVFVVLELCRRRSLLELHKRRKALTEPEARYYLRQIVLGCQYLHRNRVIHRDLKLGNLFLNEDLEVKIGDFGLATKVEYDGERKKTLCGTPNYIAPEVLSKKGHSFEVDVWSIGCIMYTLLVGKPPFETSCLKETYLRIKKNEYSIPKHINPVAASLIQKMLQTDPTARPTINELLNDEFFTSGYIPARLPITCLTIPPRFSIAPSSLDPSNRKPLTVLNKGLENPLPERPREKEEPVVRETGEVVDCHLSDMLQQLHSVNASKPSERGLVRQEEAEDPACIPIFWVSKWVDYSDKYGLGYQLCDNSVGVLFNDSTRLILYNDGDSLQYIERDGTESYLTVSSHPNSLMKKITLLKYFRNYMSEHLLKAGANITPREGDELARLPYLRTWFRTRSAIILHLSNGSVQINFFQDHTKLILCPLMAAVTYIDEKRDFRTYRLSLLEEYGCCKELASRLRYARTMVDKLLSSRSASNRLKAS

target: Serine/threonine-protein kinase PLK1 (Homo sapiens) (UniProt P53350); assay: qHTS for Inhibitors of PLK1-PDB (polo-like kinase 1 - polo-box domain): Primary Screen; conditions: Plk1 PBD binding of FITC phosphopeptide, fluorescence polarization; further: nearly all actives have a fitted effect of over 65% in size; on max response, negative = inhibition: series mostly up to about 57 µM
On the % scale 0 is the no-effect control and ±100 the full control effect; potency means the concentration at half of the fitted maximal effect.

| SMILES | Potency | max response, negative = inhibition |
| --- | --- | --- |
| O=C(NNC(=S)Nc1ccc(Br)cc1)c1ccc(N2CCOCC2)c([N+](=O)[O-])c1 | inconclusive: 26.7 µM [inhibitor, partial curve] |  |
| CCN(CC)C(=O)C1CCCc2c1[nH]c1ccc(Cl)cc21 (stereo unspecified) |  | inactive: -12.9% |
| CC1=NN(C(=O)c2ccc(C)cc2)C(O)(C(F)(F)OC(F)(F)F)C1 (stereo unspecified) | inconclusive: 21.2 µM [inhibitor, partial curve] |  |
| COc1ccc(CNC(=O)c2c([S-])n(-c3ccc(C)cc3)c3cccc[n+]23)cc1 | inconclusive: 37.7 µM [inhibitor, single point] |  |
| COc1cc(C(=O)NCC(=O)NNC(=O)CN(C)S(=O)(=O)c2ccc(Cl)cc2)cc(OC)c1OC | inconclusive: 37.7 µM [inhibitor, single point] |  |
| Oc1cccc(C(=S)N2CCC(Cc3ccccc3)CC2)c1 | active: 21.2 µM |  |
| N#C/C(=N\Nc1cccc(Cl)c1)C(=O)c1ccccc1 | inconclusive: 26.7 µM [inhibitor, partial curve] |  |
| COc1cccc(-c2nc(-c3ccccn3)no2)c1OC | active: 7.52 µM |  |
| O=C(Nc1ccc2nc(-c3ccco3)c(-c3ccco3)nc2c1)NC1CC1 | inconclusive: 13.4 µM [inhibitor, partial curve] |  |
| O=C(NCCNC(=O)c1ccccc1Cl)c1ccco1 | inconclusive: 29.9 µM [inhibitor, single point] |  |
| COc1ccc(OCC(=O)N/N=C/c2ccc(OC)c(OC)c2C(=O)O)cc1 |  | inactive: 1.9% |
| CCOc1ccc(-c2csc(/C(C#N)=C\c3ccc(O)c([N+](=O)[O-])c3)n2)cc1 | active: 18.9 µM |  |
| O=C(c1cnn(C(=O)c2cccc(S(=O)(=O)N3CCOCC3)c2)c1)c1ccccc1O | inconclusive: 16.8 µM [inhibitor, partial curve] |  |
| Cn1c2ccc(F)cc2c2nnc(SCCN3CCCCC3)nc21 | inconclusive: 29.9 µM [inhibitor, partial curve] |  |
| N#Cc1c(NC(=O)C2CC(c3ccccc3O)=NO2)sc2c1CCC2 (stereo unspecified) | active: 18.9 µM |  |
| C[C@@H]1CCCCO[C@@H](CN(C)C(=O)CCCN(C)C)[C@@H](C)CN([C@H](C)CO)C(=O)c2cc(NC(=O)CCC(F)(F)F)ccc2O1 |  | inactive: -12.7% |
| COc1ccc(C(=O)CCN2CCC(C)CC2)cc1 | inconclusive: 16.8 µM [inhibitor, partial curve] |  |
| COCC(=O)N(Cc1nc2ccccc2c(=O)[nH]1)Cc1cccs1 | inconclusive: 29.9 µM [inhibitor, partial curve] |  |
| COc1ccc2c(-c3ccccc3)cc(SCC(=O)N(C)C3CCS(=O)(=O)C3)nc2c1 (stereo unspecified) |  | inconclusive: -32.8% [inhibitor] |
| CCOC(=O)c1c2c(n(-c3ccc(OC)cc3)c1C)C(=O)C(=O)c1ccccc1-2 | inconclusive: 26.7 µM [inhibitor, partial curve] |  |
| COc1cc(C(C(=O)NC2CCCC2)N(C(=O)Cc2cccs2)C2CC2)cc(OC)c1OC (stereo unspecified) | inconclusive: 37.7 µM [inhibitor, single point] |  |
| N#C/C(=C\c1cccnc1)C(=O)Nc1ccc(SC(F)F)cc1 | inconclusive: 4.23 µM [inhibitor, full curve] |  |
| CCOC1OC(=O)C(Cl)=C1Nc1ccc(C)cc1 (stereo unspecified) |  | inactive: 0.353% |

| SMILES | Potency | max response, negative = inhibition |
| --- | --- | --- |
| Cc1noc(C)c1COC(=O)CCc1nc2ccccc2s1 | inconclusive: 26.7 µM [inhibitor, single point] |  |
| O=C1C=CC(=O)N1c1ccc(Nc2ccccc2)cc1 | active: 23.8 µM |  |
| CCOc1ccc2[nH]c(=S)sc2c1 | inconclusive: 29.9 µM [inhibitor, partial curve] |  |
| CCOC(=O)/C(=N\Nc1ccccc1Cl)N(C)C1CCCCC1 | inconclusive: 26.7 µM [inhibitor, single point] |  |
| CC1CCN(CC(=O)N2c3ccccc3CC2C)CC1 (stereo unspecified) |  | inactive: 4.54% |
| COc1ccc(/C=C(\NC(=O)c2ccccc2)C(=O)NCc2ccco2)cc1OC |  | inactive: 1.13% |
| Cc1cc(C)n(CC(=O)N2CCCC(N3CCN(Cc4ccc5c(c4)OCO5)CC3)C2)n1 (stereo unspecified) |  | inactive: -3.73% |
| O=C(O)c1cccnc1Nc1cccc(C(F)(F)F)c1 |  | inactive: -0.352% |
| O=[N+]([O-])c1ccc(C[n+]2cccc3ccc4cccnc4c32)cc1 | active: 9.47 µM |  |
| O=C1NC(=S)NC1=Cc1ccc(Cl)cc1Cl | inconclusive: 16.8 µM [inhibitor, partial curve] |  |
| CN1C(=O)/C(=N/OC(=O)c2ccccc2Br)c2ccccc21 | active: 23.8 µM |  |
| COc1cccc(COCCN2CCN(S(=O)(=O)c3ccc(C)cc3)CCC2=O)c1 | inconclusive: 23.8 µM [inhibitor, single point] |  |
| Nc1cccnc1Sc1ccc([N+](=O)[O-])cn1 | inconclusive: 4.23 µM [inhibitor, partial curve, poor fit] |  |
| Cc1cccnc1NC(=O)Nc1ccccc1 | inconclusive: 29.9 µM [inhibitor, single point] |  |
| Cc1nc(CS(=O)c2ccc(Cl)cc2)cc(NCc2ccc(Cl)cc2Cl)n1 (stereo unspecified) |  | inactive: -6.5% |
| [O-][n+]1c2ccccc2cc2ccccc21 | active: 23.8 µM |  |
| COC(=O)C(C)Oc1ccc(-c2nccc(-c3ccccn3)n2)cc1 (stereo unspecified) | inconclusive: 26.7 µM [inhibitor, single point] |  |
| CC(=O)c1ccc(S(=O)(=O)N2CCN(S(=O)(=O)c3ccccc3C(F)(F)F)CC2)cc1 | inconclusive: 33.6 µM [inhibitor, partial curve] |  |
| COc1ccc(OC)c(NC(=O)C(CCSC)NS(=O)(=O)c2cccs2)c1 (stereo unspecified) |  | inactive: -1.55% |
| COc1cccc(Nc2nc(-c3sc(NC(=O)c4ccco4)nc3C)cs2)c1 | inconclusive: 26.7 µM [inhibitor, partial curve] |  |
| O=C(O)C1Cc2ccccc2CN1S(=O)(=O)/C=C/c1ccccc1 (stereo unspecified) |  | inactive: -3.22% |
| CCO/C=C1\C(=O)N(c2ccc(OCC)cc2)C(=O)c2ccccc21 | active: 13.4 µM |  |
| O=C1Cc2cc(O)ccc2O1 |  | inactive: -1.6% |

In another format: entries from further up.
CCOC(=O)/C(=N\Nc1ccccc1Cl)N(C)C1CCCCC1
  Potency: inconclusive: 26.7 µM [inhibitor, single point]
CC1CCN(CC(=O)N2c3ccccc3CC2C)CC1 (stereo unspecified)
  max response, negative = inhibition: inactive: 4.54%
COc1ccc(/C=C(\NC(=O)c2ccccc2)C(=O)NCc2ccco2)cc1OC
  max response, negative = inhibition: inactive: 1.13%
